Data as given in PubChem BioAssay AID1671195 (Yale University, 2021).
This is an unselected part of about 22,000 reagents. About 1,510 of all reagents (6.9%) count as active. 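Active includes knockdowns raising or lowering LDL uptake; positive z-scores mean more uptake, negative mean less.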 The numbers tell different reagents against one gene apart. No sequences are given here.

Purpose: 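Knockdowns that increase or decrease uptake of fluorescent LDL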 (primary screen)
System: human Huh7 hepatoma cells
Knock-down reagent: siRNA pool against human genes, 18 nM
Timing: about 2 to 2.5 days of knockdown, then 8 h LDL uptake
Treatment: DiI-labelled LDL at 30 µg/ml for 8 h, in lipoprotein-deficient serum medium
Detection: 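Fluorescent LDL signal imaged in cells, scaled to the plate median, robust z-score for each replicate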
Direction: robust z-score: higher = more LDL uptake after knockdown
Rule for the call: 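a gene counts as active if at least two replicate z-scores exceed ±2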

target | pool no. | robust z-score, replicate 1 | robust z-score, replicate 2 | robust z-score, replicate 3 | outcome
VCAN (GeneID 1462) | 1 | -0.23 | -0.342 | 0.133 | inactive
WDR89 (GeneID 112840) | 1 | 2.45 | 3.96 | 3.13 | active
PTEN (GeneID 5728) | 1 | 1.81 | 2.04 | 1.79 | inactive
EIF2B1 (GeneID 1967) | 1 | -0.153 | -0.945 | -0.385 | inactive
KIF26B (GeneID 55083) | 1 | -1.08 | -0.86 | -0.771 | inactive
KIF26B (GeneID 55083) | 2 | -0.483 | -1.47 | -1.9 | inactive
LINC00272 (GeneID 388719) | 1 | 0.0951 | 0.0969 | -0.293 | inactive
OR5F1 (GeneID 338674) | 1 | -0.341 | -0.458 | -0.205 | inactive
DCP1A (GeneID 55802) | 1 | -1.29 | -1.41 | -1.4 | inactive
PNMT (GeneID 5409) | 1 | -0.245 | 0.108 | -0.309 | inactive
LOC387887 (retired record) (GeneID 387887) | 1 | -0.476 | -0.496 | -0.546 | inactive
MLX (GeneID 6945) | 1 | -0.125 | -0.256 | -0.305 | inactive
LOC150580 (retired record) (GeneID 150580) | 1 | 0.597 | -0.161 | 0.313 | inactive
FAM99A (GeneID 387742) | 1 | -0.368 | -0.422 | -0.49 | inactive
RPL27 (GeneID 6155) | 1 | -0.931 | -1.33 | -0.532 | inactive
FAM230B (GeneID 642633) | 1 | 1.23 | 1.5 | 0.927 | inactive
STRIP1 (GeneID 85369) | 1 | -0.822 | -0.034 | -0.695 | inactive

Records above marked active:
target | pool no. | robust z-score, replicate 1 | robust z-score, replicate 2 | robust z-score, replicate 3 | outcome
WDR89 (GeneID 112840) | 1 | 2.45 | 3.96 | 3.13 | active

Next records follow:
target | pool no. | robust z-score, replicate 1 | robust z-score, replicate 2 | robust z-score, replicate 3 | outcome
LGALS3 (GeneID 3958) | 1 | -0.498 | -0.377 | -0.676 | inactive
BPTF (GeneID 2186) | 1 | 4.63 | 1.97 | 4.1 | active
PLEKHH2 (GeneID 130271) | 1 | -0.544 | -1.88 | -0.494 | inactive
NPBWR1 (GeneID 2831) | 1 | -0.88 | -1.52 | -1.43 | inactive
SEC23IP (GeneID 11196) | 1 | -0.378 | 0.233 | -1.29 | inactive
ELP6 (GeneID 54859) | 1 | 1.21 | 1.71 | -0.924 | inactive
MAP4K2 (GeneID 5871) | 1 | 0.137 | -1.26 | -1.62 | inactive
RBP3 (GeneID 5949) | 1 | 1.96 | 0.887 | 1.75 | inactive
UTRN (GeneID 7402) | 1 | -0.0163 | -1.04 | 0.553 | inactive
LCN1 (GeneID 3933) | 1 | 0.332 | 0.978 | 0.807 | inactive
CNBD2 (GeneID 140894) | 1 | -1.49 | -2.24 | -1.54 | inactive
